For assay [1], the target named is Cortactin (endogenous, HeLa) (human (endogenous in HeLa)) (UniProt Q14247). The experiment in a line: co-IP; endogenous Cortactin immunoprecipitated with rabbit anti-Cortactin (H191) from HeLa or E6 MEF lysates, beads alone as control; for Arp2, c-Src and ERK1 HeLa cells transfected with empty vector or p27; 4°C for 4 hr.
The target of assay [2] is p27 (endogenous, E6 MEFs) (mouse (endogenous in MEFs)) (UniProt P46414). The experiment in a line: co-IP; endogenous p27 immunoprecipitated with rabbit anti-p27 (C-19) from p27+/+ E6 MEFs (starved overnight, stimulated with growth medium) or HeLa cells (starved, stimulated with 100 ng/ml EGF) at the indicated times; Cortactin detected by immunoblot. A general note: A western blot detects proteins with antibodies after separation by electrophoresis.

The chains behind the UniProt entries cited, without tags or fusion partners.
UniProt Q14247: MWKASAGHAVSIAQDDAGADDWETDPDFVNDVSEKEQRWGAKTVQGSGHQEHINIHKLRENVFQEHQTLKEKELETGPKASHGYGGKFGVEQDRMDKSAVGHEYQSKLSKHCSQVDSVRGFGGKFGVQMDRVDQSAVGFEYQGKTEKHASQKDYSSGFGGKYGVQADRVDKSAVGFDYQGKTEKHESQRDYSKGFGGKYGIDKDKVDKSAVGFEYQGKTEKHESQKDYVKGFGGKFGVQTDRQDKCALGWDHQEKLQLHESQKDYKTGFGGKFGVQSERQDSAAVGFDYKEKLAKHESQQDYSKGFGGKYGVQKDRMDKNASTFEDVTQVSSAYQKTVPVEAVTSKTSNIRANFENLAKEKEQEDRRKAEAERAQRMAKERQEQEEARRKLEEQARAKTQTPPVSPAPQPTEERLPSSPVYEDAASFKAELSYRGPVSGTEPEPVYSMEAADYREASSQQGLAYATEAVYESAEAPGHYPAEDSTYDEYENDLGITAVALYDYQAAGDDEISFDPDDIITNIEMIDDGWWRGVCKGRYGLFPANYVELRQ
UniProt P46414: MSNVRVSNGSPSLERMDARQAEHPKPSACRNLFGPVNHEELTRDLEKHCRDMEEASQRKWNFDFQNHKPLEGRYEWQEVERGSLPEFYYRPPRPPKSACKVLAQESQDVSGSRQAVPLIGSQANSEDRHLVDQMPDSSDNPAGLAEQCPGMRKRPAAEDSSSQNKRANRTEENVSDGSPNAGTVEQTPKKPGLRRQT
UniProt O88643: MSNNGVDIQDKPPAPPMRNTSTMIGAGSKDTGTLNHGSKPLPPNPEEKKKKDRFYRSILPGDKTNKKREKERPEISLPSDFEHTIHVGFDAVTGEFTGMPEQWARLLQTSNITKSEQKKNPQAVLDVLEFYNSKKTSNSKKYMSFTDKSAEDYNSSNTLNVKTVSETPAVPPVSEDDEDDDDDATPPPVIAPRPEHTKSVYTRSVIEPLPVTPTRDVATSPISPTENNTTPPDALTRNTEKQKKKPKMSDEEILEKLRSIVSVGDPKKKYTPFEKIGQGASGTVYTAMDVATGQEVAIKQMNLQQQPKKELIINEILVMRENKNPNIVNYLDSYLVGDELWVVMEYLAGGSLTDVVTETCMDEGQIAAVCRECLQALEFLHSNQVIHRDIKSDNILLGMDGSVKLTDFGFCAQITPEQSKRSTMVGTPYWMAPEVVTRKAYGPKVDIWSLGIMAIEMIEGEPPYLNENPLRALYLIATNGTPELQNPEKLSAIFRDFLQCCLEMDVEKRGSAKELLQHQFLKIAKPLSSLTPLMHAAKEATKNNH
UniProt Q60598: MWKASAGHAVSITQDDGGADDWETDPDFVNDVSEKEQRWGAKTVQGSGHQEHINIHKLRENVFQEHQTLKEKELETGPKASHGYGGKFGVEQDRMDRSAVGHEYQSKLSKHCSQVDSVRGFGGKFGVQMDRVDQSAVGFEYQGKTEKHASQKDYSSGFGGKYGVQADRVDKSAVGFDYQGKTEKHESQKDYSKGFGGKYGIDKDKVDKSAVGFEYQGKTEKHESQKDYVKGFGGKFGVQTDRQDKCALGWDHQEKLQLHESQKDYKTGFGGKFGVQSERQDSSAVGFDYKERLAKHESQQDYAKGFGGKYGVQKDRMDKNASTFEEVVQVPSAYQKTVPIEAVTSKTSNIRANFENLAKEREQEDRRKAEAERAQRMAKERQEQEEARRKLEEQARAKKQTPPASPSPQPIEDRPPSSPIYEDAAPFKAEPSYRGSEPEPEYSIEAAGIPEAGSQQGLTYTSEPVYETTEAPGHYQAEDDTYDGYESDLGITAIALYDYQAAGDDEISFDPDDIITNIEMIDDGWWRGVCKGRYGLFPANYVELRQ
UniProt P46527: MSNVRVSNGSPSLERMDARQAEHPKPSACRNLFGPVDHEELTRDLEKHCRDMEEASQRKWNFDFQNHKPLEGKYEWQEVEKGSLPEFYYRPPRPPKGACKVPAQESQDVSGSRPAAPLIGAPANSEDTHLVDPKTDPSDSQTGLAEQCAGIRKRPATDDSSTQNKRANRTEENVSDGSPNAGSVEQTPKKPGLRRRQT
UniProt Q13153: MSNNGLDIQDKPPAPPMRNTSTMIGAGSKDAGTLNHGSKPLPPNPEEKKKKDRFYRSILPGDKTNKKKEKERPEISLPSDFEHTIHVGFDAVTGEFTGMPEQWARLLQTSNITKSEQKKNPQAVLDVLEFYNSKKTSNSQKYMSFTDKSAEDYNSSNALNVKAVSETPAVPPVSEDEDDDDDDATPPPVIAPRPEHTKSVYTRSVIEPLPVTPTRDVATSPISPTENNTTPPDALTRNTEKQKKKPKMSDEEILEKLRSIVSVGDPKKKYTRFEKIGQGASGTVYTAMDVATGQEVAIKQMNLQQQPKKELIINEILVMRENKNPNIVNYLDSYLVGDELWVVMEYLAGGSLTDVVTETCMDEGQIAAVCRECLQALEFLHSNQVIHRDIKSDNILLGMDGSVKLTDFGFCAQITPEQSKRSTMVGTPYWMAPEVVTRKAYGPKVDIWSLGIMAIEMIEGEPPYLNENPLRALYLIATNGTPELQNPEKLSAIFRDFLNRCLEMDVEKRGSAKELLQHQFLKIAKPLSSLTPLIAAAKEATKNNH
UniProt P27361: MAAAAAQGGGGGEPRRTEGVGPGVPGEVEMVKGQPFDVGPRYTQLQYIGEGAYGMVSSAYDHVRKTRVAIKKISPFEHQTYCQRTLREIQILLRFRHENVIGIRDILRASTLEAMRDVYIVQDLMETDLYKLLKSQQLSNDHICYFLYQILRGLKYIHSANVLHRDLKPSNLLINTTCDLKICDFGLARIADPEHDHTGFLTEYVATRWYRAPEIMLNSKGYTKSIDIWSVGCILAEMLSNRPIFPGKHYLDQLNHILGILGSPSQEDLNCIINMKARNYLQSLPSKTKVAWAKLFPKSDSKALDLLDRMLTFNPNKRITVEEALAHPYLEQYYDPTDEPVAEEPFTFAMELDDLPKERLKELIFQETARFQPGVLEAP

Assay [3] concerns the target PAK1 (endogenous, E6 MEFs) (mouse (endogenous in MEFs)) (UniProt O88643). The experiment in a line: co-IP; endogenous PAK1 immunoprecipitated with rabbit anti-PAK1 (N-20) from HeLa cells transfected with empty vector or p27, from p27+/+ and p27-/- E6 MEFs, and from p27+/+ E6 MEFs starved and stimulated with growth medium; Cortactin detected by immunoblot.
The target in assay [4] is Cortactin (on Protoarray protein array) (UniProt Q14247). The experiment in a line: peptide or protein array; protein arrays (Protoarray, ThermoFisher Scientific) probed with recombinant human p27; proteomic screen; both purified.
Assay [5] deals with Cortactin (endogenous, E6 MEFs) (mouse (endogenous in MEFs)) (UniProt Q60598). The experiment in a line: co-IP; endogenous Cortactin immunoprecipitated with rabbit anti-Cortactin (H191) from HeLa or E6 MEF lysates, beads alone as control; for Arp2, c-Src and ERK1 HeLa cells transfected with empty vector or p27; 4°C for 4 hr.
Assay [6] addresses p27 (endogenous, HeLa) (human (endogenous in HeLa)) (UniProt P46527). The experiment in a line: co-IP; endogenous p27 immunoprecipitated with rabbit anti-p27 (C-19) from p27+/+ E6 MEFs (starved overnight, stimulated with growth medium) or HeLa cells (starved, stimulated with 100 ng/ml EGF) at the indicated times; Cortactin detected by immunoblot.
Assay [7] addresses PAK1 (endogenous, HeLa) (human (endogenous in HeLa)) (UniProt Q13153). The experiment in a line: co-IP; endogenous PAK1 immunoprecipitated with rabbit anti-PAK1 (N-20) from HeLa cells transfected with empty vector or p27, from p27+/+ and p27-/- E6 MEFs, and from p27+/+ E6 MEFs starved and stimulated with growth medium; Cortactin detected by immunoblot.

Results are given in words; binding and its absence hold for the method and conditions named. For some assays here: Binding seen in cells or lysates may run through a third protein. Some entries that bind do so weakly or less than the wild type.

In the case of “p27 (endogenous, HeLa) (from UniProt P46527 1-198)”, in assay [1], the binding entry is “binds”.
For “Cortactin (endogenous, E6 MEFs) (from UniProt Q60598 1-546)”, the binding result in assay [2] and in assay [3] was “binds” in each case.
For the substance “ERK1 (endogenous, HeLa) (from UniProt P27361 1-379)”, the binding result in assay [1] is “binds”.
As to “recombinant human p27 (from UniProt P46527 1-198)”, the binding entry in assay [4] is listed as “binds”.
On to “p27 (endogenous, E6 MEFs) (from UniProt P46414 1-197)”, for which, in assay [5], the binding result is listed as “binds”.
“Cortactin (endogenous, HeLa) (from UniProt Q14247 1-550)”: the binding entry in assay [6] and in assay [7] was “binds” throughout.

The values above are taken from paper PMC5388532.
